Holding throughout (conditions): 10 µM; pre-incubation: 30-90 min
For experiment [1], the system named is Danio rerio larvae (5 dpf, TLF). As to the kind of experiment: OMR-Perf (SSMD vs DMSO vehicle); higher = higher than vehicle (e.g. higher dark-flash O-bend response probability, or better optomotor performance).
For experiment [2] the test system is unchanged. Description: Prob-Test (SSMD vs DMSO vehicle); higher = higher than vehicle (e.g. higher dark-flash O-bend response probability, or better optomotor performance).
The test system is the same in experiment [3]. As to the kind of experiment: Prob-Naive (SSMD vs DMSO vehicle); higher = higher than vehicle (e.g. higher dark-flash O-bend response probability, or better optomotor performance).
Experiment [4] has the same test system. As to the kind of experiment: Prob-Train (SSMD vs DMSO vehicle); higher = higher than vehicle (e.g. higher dark-flash O-bend response probability, or better optomotor performance).

This is one part of the list. Repeats in this data set agree poorly, so a single value says little.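 Researchers measured free-swimming zebrafish larvae's O-bend response probability to dark flashes (naive: first five; training: remaining flashes of four 60-flash blocks; test: later 60-flash block) and OMR turning toward alternating leftward/rightward LED motion. Six treated larvae were compared to sixty 0.1% DMSO controls, with |SSMD|≥2 marking a hit.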

In the case of `C[C@]12CCC(=O)C(O)=C1CC[C@@H]1[C@H]2CC[C@]2(C)C(=O)CC[C@@H]12` [Formestane], the OMR-Perf in experiment [1] was -0.58. Moreover, the Prob-Test in experiment [2] is 0.0727. Also, the Prob-Naive in experiment [3] was -0.0954. The compound further yielded a Prob-Train in experiment [4] of 0.0432.
`CC(=O)OC1CN2CCC1CC2.Cl` (stereo unspecified) [Aceclidine HCl] gave an OMR-Perf in experiment [1] of -0.018. Besides, the Prob-Test in experiment [2] was -0.557. Further, in experiment [3], the Prob-Naive was -0.0507. The compound also registered a Prob-Train in experiment [4] of -0.347.
`C=C1CCC2(O)C3Cc4ccc(O)c5c4C2(CCN3CC2CC2)C1O5.Cl` (stereo unspecified) [Nalmefene HCl] gave an OMR-Perf in experiment [1] of -0.259. In experiment [2], this compound came in with a Prob-Test of -1.44. In experiment [3], this compound showed a Prob-Naive of -0.444. For the same compound, in experiment [4], the Prob-Train was -2.1.
The like results for `O=c1[nH]c2ccc(Cl)cc2c(N[C@@H]2CN3CCC2CC3)c1-c1nc2ccccc2[nH]1` were, in that order, -0.883, 1.01, -0.13 and -0.126.

Values taken from the supplement of paper PMC10727501.
